Measured values as given in the supplement of paper PMC8256030.
“And” between values parts separate entries of the source, which are not always exact repeats. Equal entries are not always repeated. This is one part of the list. This data set is noisy: repeats of one test often differ as much as different tests do.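 HEK293T cells were given each compound shortly before transfection with a reporter in which red mCherry is followed by the SARS-CoV-2 frameshift element and then GFP in the −1 frame, so GFP appears only after frameshifting.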

The compounds below were run on HEK293T (assay: percent viability (nuclei count) relative to control; higher = more viable cells). Conditions: 10 µM; 24 h.

Structure (SMILES)	percent viability
CN[C@@H]1CCc2[nH]c3ccc(C(N)=O)cc3c2C1 [frovatriptan]	235%
CCN(CC)CCOC(=O)C(Cc1cccc2ccccc12)CC1CCCO1 (mixture of isomers) [naftidrofuryl]	187%
CCOC(=O)[C@H](CCc1ccccc1)N[C@H]1CCCN2CCC[C@@H](C(=O)O)N2C1=O [Inhibace]	200%
NCCCC[C@H](N)C(=O)O [lysine]	247%
O=C1C(N2CCCCC2)CCN1c1ccccc1 (stereo not given) [felipyrine]	284%
Cn1c(=O)c2c(ncn2C)n(C)c1=O	380%
COc1c(N2C[C@@H]3CCCN[C@@H]3C2)c(F)cc2c(=O)c(C(=O)O)cn(C3CC3)c12 [moxifloxacin]	279%
CO/N=C(\C(=O)N[C@@H]1C(=O)N2C(C(=O)O)=C(COC(C)=O)CS[C@H]12)c1csc(N)n1	288%
CN1CC[C@H](c2c(O)cc(O)c3c(=O)cc(-c4ccccc4Cl)oc23)[C@H](O)C1 [alvocidib]	14.7%
CC1=C(/C=C/C(C)=C/C=C/C(C)=C/C=C/C=C(C)/C=C/C=C(C)/C=C/C2=C(C)CCCC2(C)C)C(C)(C)CCC1	255%
NCCCC[C@H](NC(=O)[C@@H]1CCCN1C(=O)[C@@H]1CSSC[C@H](NC(=O)CNC(=O)CNC(=O)CN)C(=O)N[C@@H](Cc2ccc(O)cc2)C(=O)N[C@@H](Cc2ccccc2)C(=O)N[C@@H](CCC(N)=O)C(=O)N[C@@H](CC(N)=O)C(=O)N1)C(=O)NCC(N)=O [terlipressin]	193%
O=[N+]([O-])c1cncn1CCN1CCOCC1 [nimorazole]	41%
N=C(N)NS(=O)(=O)c1ccc(N)cc1 [sulfaguanidine]	16%
CCCCCN(C)CCC(O)(P(=O)(O)O)P(=O)(O)O [ibandronic acid]	172%
CN(C)c1cnccn1	215%
c1ccc(Cn2c(N3CCNCC3)nc3ccccc32)cc1 [lerisetron]	164%
Nc1c(Br)cc(Br)cc1CN[C@H]1CC[C@H](O)CC1 [ambroxol]	249% and 150%
CNC(=S)C1(c2ccccn2)CCCS1 (stereo not given) [picartamide]	123%
NCc1ccccc1Sc1ccccc1CO [bipenamol]	150%
N[C@H](Cc1ccccc1)C(=O)O	118%

Structure (SMILES)	percent viability
Cc1nnc(SCC2=C(C(=O)O)N3C(=O)[C@@H](NC(=O)Cn4cnnn4)[C@H]3SC2)s1	111%
N=C(N)N/N=C/c1c(Cl)cccc1Cl [Guanabenz]	251%
CCCSc1nc(N[C@@H]2C[C@H]2c2ccc(F)c(F)c2)c2nnn([C@@H]3C[C@H](OCCO)[C@@H](O)[C@H]3O)c2n1 [Brilinta]	189%
Cc1oc(-c2ccccc2)nc1CCC(=O)c1ccc(CC2SC(=O)NC2=O)cc1 (stereo not given) [darglitazone]	233%
CN(C/C=C/c1ccccc1)Cc1cccc2ccccc12 [naftifine]	279%
CCC(C)OC(=O)N1CCCCC1CCO (stereo not given) [icaridin]	176%
O=C(O)c1ccccc1	398%
C#C[C@]1(OC(C)=O)CC[C@H]2[C@@H]3CCC4=CC(=NO)CC[C@@H]4[C@H]3CC[C@@]21CC (mixture of isomers) [norgestimate]	212%
O=c1c2c(c1=O)N(CCP(=O)(O)O)CCCN2 [perzinfotel]	89.2%
C#C[C@]1(O)CC[C@H]2[C@@H]3[C@H](C)CC4=C(CCC(=O)C4)[C@H]3CC[C@@]21C [tibolone]	313% and 168%
CO[C@H]1C[C@@H]2CC[C@@H](C)[C@@](O)(O2)C(=O)C(=O)N2CCCC[C@H]2C(=O)O[C@H]([C@H](C)C[C@@H]2CC[C@@H](O)[C@H](OC)C2)CC(=O)[C@H](C)/C=C(\C)[C@@H](O)[C@@H](OC)C(=O)[C@H](C)C[C@H](C)/C=C/C=C/C=C/1C	122%
CCn1cc(C(=O)O)c(=O)c2cc(F)c(N3CCNCC3)nc21 [enoxacin]	239% and 179%
CCN(Cc1ccncc1)C(=O)C(CO)c1ccccc1 (stereo not given)	167%
Cc1c(Nc2ncccc2C(=O)O)cccc1C(F)(F)F [flunixin]	91.5%
O=C(O)P(=O)(O)O [foscarnet sodium]	355%
COc1cc(C(=S)N2CCOCC2)ccc1O [vanitiolide]	137%
C[C@H](NC(=O)c1cnc2n1[C@](C)(Cc1ccc(C#N)cc1)C(=O)N2c1cc(Cl)c(F)c(Cl)c1)C(=O)NC1(c2ccccn2)CC1	466%
CSc1nc2cc(Cl)c(Oc3cccc(Cl)c3Cl)cc2[nH]1 [triclabendazole]	190%
C[N+]1(C)[C@@H]2C[C@@H](OC(=O)C(O)(c3cccs3)c3cccs3)C[C@H]1[C@@H]1O[C@@H]12 [Spiriva]	42.9%
Cl/C(=C\n1cncn1)c1ccc(Cl)cc1Cl [loreclezole]	172%

By substructure: the entries above with an NH in an aromatic ring.
Structure (SMILES)	percent viability
CN[C@@H]1CCc2[nH]c3ccc(C(N)=O)cc3c2C1 [frovatriptan]	235%
CSc1nc2cc(Cl)c(Oc3cccc(Cl)c3Cl)cc2[nH]1 [triclabendazole]	190%
